Source: the supplement of paper PMC12823440, “Inhibitors supercharge kinase turnover through native proteolytic circuits” (Nature, 2025)
Some of the results follow. Hit calls seldom repeat between salt and free forms of one compound.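 In K562 cells expressing nanoluciferase-fused kinases, luminescence was recorded at 4 h intervals between 2 and 18 h, normalized as percent of control with DMSO at 100% and a positive control at 0%. A significant (2 sigma) signal drop marks a time point as decreased. The authors' rule for a hit is not shown and takes in more than the number of time points.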

Amino acid sequences for entries named in this document (tags omitted). A change or cut given only in a name is not applied to a line headed by its entry.
UniProt Q8IWU2: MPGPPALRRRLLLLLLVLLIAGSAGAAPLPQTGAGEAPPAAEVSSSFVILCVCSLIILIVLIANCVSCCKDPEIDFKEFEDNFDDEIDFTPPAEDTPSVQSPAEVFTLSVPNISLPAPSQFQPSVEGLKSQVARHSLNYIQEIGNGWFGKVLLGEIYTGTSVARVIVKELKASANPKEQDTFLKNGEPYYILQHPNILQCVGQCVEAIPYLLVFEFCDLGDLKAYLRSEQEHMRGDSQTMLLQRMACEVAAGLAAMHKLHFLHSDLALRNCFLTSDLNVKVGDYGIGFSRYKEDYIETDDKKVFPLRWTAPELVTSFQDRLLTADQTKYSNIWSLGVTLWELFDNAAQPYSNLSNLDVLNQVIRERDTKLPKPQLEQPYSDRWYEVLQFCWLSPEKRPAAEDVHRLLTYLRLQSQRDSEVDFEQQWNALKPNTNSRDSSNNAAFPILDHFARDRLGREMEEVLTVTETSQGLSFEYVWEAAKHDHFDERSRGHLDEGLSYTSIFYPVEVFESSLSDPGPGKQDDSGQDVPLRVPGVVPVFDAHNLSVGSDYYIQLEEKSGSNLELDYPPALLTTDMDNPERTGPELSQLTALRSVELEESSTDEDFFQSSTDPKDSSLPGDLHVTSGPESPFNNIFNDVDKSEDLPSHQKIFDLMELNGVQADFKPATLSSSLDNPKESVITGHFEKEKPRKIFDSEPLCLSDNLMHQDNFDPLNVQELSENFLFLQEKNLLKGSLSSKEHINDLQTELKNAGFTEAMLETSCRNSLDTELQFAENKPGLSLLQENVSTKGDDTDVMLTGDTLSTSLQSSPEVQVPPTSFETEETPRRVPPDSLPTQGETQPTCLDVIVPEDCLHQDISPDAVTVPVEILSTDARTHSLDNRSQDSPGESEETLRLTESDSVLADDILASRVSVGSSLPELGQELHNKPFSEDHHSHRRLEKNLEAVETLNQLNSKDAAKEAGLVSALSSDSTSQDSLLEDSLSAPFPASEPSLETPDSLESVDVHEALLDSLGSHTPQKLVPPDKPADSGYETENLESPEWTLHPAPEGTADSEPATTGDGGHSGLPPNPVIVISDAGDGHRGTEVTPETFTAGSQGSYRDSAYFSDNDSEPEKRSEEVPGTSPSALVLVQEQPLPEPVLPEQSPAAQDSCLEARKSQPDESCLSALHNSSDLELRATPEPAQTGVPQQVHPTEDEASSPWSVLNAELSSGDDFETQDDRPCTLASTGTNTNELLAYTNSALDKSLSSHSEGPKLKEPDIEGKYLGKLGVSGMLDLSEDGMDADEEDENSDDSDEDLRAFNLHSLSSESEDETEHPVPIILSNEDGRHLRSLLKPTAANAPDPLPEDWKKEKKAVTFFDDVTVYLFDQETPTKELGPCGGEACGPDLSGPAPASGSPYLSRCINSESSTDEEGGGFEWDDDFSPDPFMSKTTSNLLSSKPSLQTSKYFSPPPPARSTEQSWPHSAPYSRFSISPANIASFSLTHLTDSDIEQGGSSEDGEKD
UniProt P07948: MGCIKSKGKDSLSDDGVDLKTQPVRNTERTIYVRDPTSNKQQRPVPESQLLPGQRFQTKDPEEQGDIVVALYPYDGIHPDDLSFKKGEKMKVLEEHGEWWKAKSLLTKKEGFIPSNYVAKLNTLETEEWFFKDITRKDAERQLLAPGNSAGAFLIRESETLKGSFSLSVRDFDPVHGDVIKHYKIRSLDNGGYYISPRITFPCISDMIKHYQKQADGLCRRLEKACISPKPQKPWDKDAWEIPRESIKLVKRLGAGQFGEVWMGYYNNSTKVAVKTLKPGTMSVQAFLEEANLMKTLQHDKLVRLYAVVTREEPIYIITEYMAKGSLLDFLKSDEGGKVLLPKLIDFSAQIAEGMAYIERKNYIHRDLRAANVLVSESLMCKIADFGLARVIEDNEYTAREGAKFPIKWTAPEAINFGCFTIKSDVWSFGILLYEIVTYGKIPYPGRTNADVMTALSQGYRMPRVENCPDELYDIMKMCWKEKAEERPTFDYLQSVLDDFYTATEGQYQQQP
UniProt Q12851: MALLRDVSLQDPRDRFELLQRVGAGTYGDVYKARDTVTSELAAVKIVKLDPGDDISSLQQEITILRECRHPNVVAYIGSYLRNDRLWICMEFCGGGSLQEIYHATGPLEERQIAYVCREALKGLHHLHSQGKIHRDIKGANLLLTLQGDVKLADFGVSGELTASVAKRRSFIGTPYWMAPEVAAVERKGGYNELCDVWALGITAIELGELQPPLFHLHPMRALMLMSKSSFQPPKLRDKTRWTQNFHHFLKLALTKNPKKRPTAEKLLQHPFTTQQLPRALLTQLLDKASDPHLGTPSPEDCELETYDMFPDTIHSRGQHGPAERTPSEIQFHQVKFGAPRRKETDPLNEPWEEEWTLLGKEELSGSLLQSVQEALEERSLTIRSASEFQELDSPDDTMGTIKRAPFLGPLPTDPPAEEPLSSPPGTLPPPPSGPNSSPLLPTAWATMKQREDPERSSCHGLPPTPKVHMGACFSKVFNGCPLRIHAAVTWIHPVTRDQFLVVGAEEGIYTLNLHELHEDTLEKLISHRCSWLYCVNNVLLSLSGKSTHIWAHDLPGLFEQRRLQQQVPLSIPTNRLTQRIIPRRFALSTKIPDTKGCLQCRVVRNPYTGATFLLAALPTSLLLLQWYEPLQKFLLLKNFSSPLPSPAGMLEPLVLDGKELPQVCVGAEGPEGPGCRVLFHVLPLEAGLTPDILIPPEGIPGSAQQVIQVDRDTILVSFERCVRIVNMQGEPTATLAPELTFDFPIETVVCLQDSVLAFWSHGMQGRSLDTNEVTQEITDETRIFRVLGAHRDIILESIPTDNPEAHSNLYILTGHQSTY
UniProt P28482, whole entry: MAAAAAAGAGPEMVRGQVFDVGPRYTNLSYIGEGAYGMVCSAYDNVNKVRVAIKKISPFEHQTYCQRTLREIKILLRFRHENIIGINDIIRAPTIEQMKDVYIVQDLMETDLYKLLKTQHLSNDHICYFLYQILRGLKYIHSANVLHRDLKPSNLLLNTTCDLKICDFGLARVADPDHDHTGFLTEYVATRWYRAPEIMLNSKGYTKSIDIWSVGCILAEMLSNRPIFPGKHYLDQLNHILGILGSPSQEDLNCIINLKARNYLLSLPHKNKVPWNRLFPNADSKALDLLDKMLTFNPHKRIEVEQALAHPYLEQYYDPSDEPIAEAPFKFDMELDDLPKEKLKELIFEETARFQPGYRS
UniProt P31152, whole entry: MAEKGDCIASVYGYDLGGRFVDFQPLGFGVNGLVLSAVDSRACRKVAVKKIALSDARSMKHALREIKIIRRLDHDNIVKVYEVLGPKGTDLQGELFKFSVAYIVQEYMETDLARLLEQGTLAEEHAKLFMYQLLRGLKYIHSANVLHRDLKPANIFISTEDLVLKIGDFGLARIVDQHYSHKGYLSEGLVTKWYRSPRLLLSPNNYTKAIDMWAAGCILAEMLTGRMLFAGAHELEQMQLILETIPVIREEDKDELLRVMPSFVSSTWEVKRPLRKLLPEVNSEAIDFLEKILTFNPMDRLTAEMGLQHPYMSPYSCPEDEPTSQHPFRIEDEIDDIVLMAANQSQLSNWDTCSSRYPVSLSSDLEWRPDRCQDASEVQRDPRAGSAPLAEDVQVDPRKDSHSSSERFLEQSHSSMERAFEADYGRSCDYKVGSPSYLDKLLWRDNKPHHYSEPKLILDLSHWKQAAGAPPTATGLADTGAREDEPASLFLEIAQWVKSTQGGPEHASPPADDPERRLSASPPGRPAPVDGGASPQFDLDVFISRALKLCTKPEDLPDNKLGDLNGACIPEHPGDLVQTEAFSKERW
UniProt P49137, whole entry, looked up: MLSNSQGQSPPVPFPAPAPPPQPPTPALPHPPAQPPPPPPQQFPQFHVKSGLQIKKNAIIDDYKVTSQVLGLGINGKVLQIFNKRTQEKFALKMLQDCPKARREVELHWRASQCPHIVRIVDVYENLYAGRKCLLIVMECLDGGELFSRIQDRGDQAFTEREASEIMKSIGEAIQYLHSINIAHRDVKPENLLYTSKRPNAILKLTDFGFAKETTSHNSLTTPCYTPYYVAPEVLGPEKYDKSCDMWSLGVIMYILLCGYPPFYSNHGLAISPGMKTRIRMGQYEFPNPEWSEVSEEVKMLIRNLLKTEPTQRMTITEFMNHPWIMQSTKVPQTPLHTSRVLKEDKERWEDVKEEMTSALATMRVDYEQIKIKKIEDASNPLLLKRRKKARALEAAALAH
UniProt Q9BUB5: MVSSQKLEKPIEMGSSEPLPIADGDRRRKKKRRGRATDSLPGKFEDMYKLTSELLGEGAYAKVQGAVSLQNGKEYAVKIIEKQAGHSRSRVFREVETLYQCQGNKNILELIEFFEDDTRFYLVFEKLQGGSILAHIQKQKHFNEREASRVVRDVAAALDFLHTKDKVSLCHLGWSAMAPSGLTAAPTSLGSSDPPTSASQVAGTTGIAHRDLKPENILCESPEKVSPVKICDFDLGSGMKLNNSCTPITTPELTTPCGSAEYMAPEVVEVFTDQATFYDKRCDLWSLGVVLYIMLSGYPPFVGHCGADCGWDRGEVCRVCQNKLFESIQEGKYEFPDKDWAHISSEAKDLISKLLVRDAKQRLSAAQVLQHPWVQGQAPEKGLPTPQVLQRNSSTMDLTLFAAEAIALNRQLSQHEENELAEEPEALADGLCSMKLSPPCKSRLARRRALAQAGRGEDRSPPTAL
UniProt Q16620, whole entry, looked up: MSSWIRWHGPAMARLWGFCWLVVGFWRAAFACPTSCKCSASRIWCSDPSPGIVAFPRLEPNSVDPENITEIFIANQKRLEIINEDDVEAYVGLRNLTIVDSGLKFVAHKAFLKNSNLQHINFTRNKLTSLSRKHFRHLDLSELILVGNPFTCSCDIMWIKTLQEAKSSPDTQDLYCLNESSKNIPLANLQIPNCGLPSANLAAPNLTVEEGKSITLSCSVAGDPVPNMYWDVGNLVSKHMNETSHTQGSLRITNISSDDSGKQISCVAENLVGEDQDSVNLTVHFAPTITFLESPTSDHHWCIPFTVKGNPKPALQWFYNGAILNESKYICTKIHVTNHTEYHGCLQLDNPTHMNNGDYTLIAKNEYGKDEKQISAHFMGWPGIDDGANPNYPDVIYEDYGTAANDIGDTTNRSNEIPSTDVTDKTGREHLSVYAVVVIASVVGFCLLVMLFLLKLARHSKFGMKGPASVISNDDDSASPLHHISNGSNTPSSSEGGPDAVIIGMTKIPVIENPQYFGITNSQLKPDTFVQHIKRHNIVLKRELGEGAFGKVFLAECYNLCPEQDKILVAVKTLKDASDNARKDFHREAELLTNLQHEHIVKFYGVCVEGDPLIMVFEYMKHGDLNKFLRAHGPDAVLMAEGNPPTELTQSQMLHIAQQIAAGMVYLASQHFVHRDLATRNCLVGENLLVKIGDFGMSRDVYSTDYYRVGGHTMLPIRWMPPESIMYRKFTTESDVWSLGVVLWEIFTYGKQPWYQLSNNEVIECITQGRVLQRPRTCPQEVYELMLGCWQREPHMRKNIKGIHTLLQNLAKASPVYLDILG

How the values were obtained:
Assay in all cases: number of time points (of 5) at which kinase-Nluc abundance scored as decreased, DMSO-normalised (count); higher = more persistent destabilization
Details in all cases: K562; 2-18 h
LMTK2 = LMTK2 (UniProt Q8IWU2)
LYN = LYN (UniProt P07948)
MAP2K1 = MAP2K1 (UniProt Q02750)
MAP2K2 = MAP2K2 (UniProt P36507)
MAP4K2 = MAP4K2 (UniProt Q12851)
MAPK1 = MAPK1 (UniProt P28482)
MAPK4 = MAPK4 (UniProt P31152)
MAPKAPK2 = MAPKAPK2 (UniProt P49137)
MKNK1 = MKNK1 (UniProt Q9BUB5)
NTRK2 = NTRK2 (UniProt Q16620)

Measured: number of time points

COc1ccc2c(c1)c(C1=C(c3c[nH]c4ccccc34)C(=O)NC1=O)cn2CCCN(C)C (10 µM)
0: LMTK2 | LYN | MAP2K1 | MAP2K2 | MAP4K2 | MAPK1 | MAPK4 | MAPKAPK2 | MKNK1 | NTRK2

COc1nc(-c2cccc3c2OCCO3)ccc1Nc1ccc(CN(C)C)cc1 [RAS inhibitor Abd-7] (10 µM)
0: LMTK2 | MAP2K1 | MAP2K2 | MAP4K2 | MAPK1 | MAPK4 | MAPKAPK2 | MKNK1 | NTRK2
1: LYN

N#C/C(=C\c1ccc2oc(=O)[nH]c2c1)C(=O)c1ccc(O)c(O)c1 (10 µM)
0: LMTK2 | LYN | MAP2K1 | MAP2K2 | MAP4K2 | MAPK1 | MAPK4 | MAPKAPK2 | MKNK1 | NTRK2

Cc1nc(NC(=O)NCCc2nnn(CCF)n2)sc1-c1ccc(S(C)(=O)=O)c(F)c1 (10 µM)
0: LMTK2 | LYN | MAP2K1 | MAP2K2 | MAP4K2 | MAPK1 | MAPK4 | MAPKAPK2 | MKNK1 | NTRK2

Nc1cc(C(F)(F)F)c(-c2nc(N3CCOCC3)nc(N3CCOCC3)n2)cn1 [Bimiralisib] (10 µM)
2: NTRK2
0: LMTK2 | LYN | MAP2K1 | MAP2K2 | MAP4K2 | MAPK1 | MAPK4 | MAPKAPK2 | MKNK1

O=c1ccoc2cc(O)ccc12 [7-Hydroxy-4H-chromen-4-one] (10 µM)
0: LMTK2 | LYN | MAP2K1 | MAP2K2 | MAP4K2 | MAPK1 | MAPK4 | MAPKAPK2 | MKNK1 | NTRK2

Cc1cc(C(C)Nc2ccccc2)c2nc(N3CCOCC3)cc(=O)n2c1 (stereo not given) (10 µM)
0: LMTK2 | LYN | MAP2K1 | MAP2K2 | MAP4K2 | MAPK1 | MAPK4 | MAPKAPK2 | MKNK1 | NTRK2

CCn1nc(C2CCN(C(=O)CCO)CC2)nc1-c1cnc(N)c(-c2nnc(C(C)(C)C)o2)n1 (10 µM)
0: LMTK2 | LYN | MAP2K1 | MAP2K2 | MAP4K2 | MAPK1 | MAPK4 | MAPKAPK2 | MKNK1 | NTRK2

CC1=C(C(=O)Nc2ccc3[nH]ncc3c2)C(c2ccc(F)cc2)NC(=O)N1 (stereo not given) (10 µM)
0: LMTK2 | LYN | MAP2K1 | MAP2K2 | MAP4K2 | MAPK1 | MAPK4 | MAPKAPK2 | MKNK1 | NTRK2
